PubChem BioAssay AID602196, INSERM, 2012
This is one part, drawn at random, of about 23,000 reagents. In the full data, 455 (2%) are marked active. 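Active includes both protection and sensitisation; some change values fall well beyond the stated -50 to +50 range.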 Unmarked entries are inactive. Further read-outs or replicates are left out here. Not stated in the record: the amount of reagent.

- Aim: 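Genes whose knock-down alters cisplatin killing of lung cancer cells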
- Cell system: human A549 lung cancer cells
- Reagent: siRNA pair against human genes
- Timing: 48 h transfection before cisplatin; time from cisplatin to read-out not stated
- Challenge: cisplatin at a dose killing half of control-siRNA cells; exact dose and duration not given
- Read-out: 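Cisplatin cell death as a shift from the 50% death seen with control siRNA; siRNAs toxic or growth-blocking alone scored 0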
- Scale: two-siRNA summed score (-2 to +2): higher = both siRNAs protect from cisplatin killing; -2 means both sensitise; mean protection from cisplatin (shift in death): higher = protection from cisplatin killing
- Active means: 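siRNAs harmful alone (LDH or WST-1) get 0; others get +1 for less and -1 for more cisplatin killing; genes are active when the two siRNAs give the same sign, summing to ±2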
- Calls: active = both siRNAs shift cisplatin killing the same way; inactive = no consistent shift, or siRNA harmful alone

Silencing of PAQR7 (progestin and adipoQ receptor family member 7) [SID131511179] resulted in: two-siRNA summed score (-2 to +2) = 0; mean protection from cisplatin (shift in death) (%) = 4.1.
ARL14 (ARF like GTPase 14) [SID131503603] gave two-siRNA summed score (-2 to +2) = 0; mean protection from cisplatin (shift in death) (%) = -9.
Against NKTR (natural killer cell triggering receptor) [SID131503856], the values are two-siRNA summed score (-2 to +2) = 0; mean protection from cisplatin (shift in death) (%) = -7.4.
EFR3A (EFR3 homolog A) [SID131510269] scored two-siRNA summed score (-2 to +2) = 0; mean protection from cisplatin (shift in death) (%) = 3.1.
TRPM6 [SID131509259] scored two-siRNA summed score (-2 to +2) = 0; mean protection from cisplatin (shift in death) (%) = 2.
RPL14 (ribosomal protein L14) [SID131521328] scored two-siRNA summed score (-2 to +2) = 1; mean protection from cisplatin (shift in death) (%) = 13.
Against CBX6 (chromobox 6) [SID131511326] the deposit lists two-siRNA summed score (-2 to +2) = 0; mean protection from cisplatin (shift in death) (%) = 4.2.
For AMPD2 (adenosine monophosphate deaminase 2) [SID131521563] the deposit lists two-siRNA summed score (-2 to +2) = 1; mean protection from cisplatin (shift in death) (%) = 14.
For SOCS5 (suppressor of cytokine signaling 5) [SID131506874], the entry reads two-siRNA summed score (-2 to +2) = 0; mean protection from cisplatin (shift in death) (%) = -0.9.
For NRN1 (neuritin 1) [SID131507700], the values are two-siRNA summed score (-2 to +2) = 0; mean protection from cisplatin (shift in death) (%) = 0.2.
PHF24 (PHD finger protein 24) [SID131519524] scored two-siRNA summed score (-2 to +2) = 1; mean protection from cisplatin (shift in death) (%) = 6.1.
Against PPP2R5A (protein phosphatase 2 regulatory subunit B'alpha) [SID131504236], the entry reads two-siRNA summed score (-2 to +2) = 0; mean protection from cisplatin (shift in death) (%) = -6.
For MS4A15 (membrane spanning 4-domains A15) [SID131515570], the entry reads two-siRNA summed score (-2 to +2) = 0; mean protection from cisplatin (shift in death) (%) = 9.4.
Depletion of LOC400617 [SID131515078] resulted in: two-siRNA summed score (-2 to +2) = 0; mean protection from cisplatin (shift in death) (%) = 8.6.
TPTE (transmembrane phosphatase with tensin homology) [SID131507204] scored two-siRNA summed score (-2 to +2) = 0; mean protection from cisplatin (shift in death) (%) = -0.4.
Knock-down of NKIRAS1 (NFKB inhibitor interacting Ras like 1) [SID131506706] resulted in: two-siRNA summed score (-2 to +2) = 0; mean protection from cisplatin (shift in death) (%) = -1.1.
LOC389440 [SID131509144] gave two-siRNA summed score (-2 to +2) = 0; mean protection from cisplatin (shift in death) (%) = 1.9.
Against OR2A25 (olfactory receptor family 2 subfamily A member 25) [SID131523190] the deposit lists two-siRNA summed score (-2 to +2) = 2 (active); mean protection from cisplatin (shift in death) (%) = 24.4.
Silencing of RNF20 (ring finger protein 20) [SID131507773] resulted in: two-siRNA summed score (-2 to +2) = 0; mean protection from cisplatin (shift in death) (%) = 0.3.
LOC442557 [SID131521227] gave two-siRNA summed score (-2 to +2) = 1; mean protection from cisplatin (shift in death) (%) = 12.7.
Knock-down of LOC440109 [SID131519922] came out at: two-siRNA summed score (-2 to +2) = 1; mean protection from cisplatin (shift in death) (%) = 8.
Knock-down of H4C4 (H4 clustered histone 4) [SID131507756] gave: two-siRNA summed score (-2 to +2) = 0; mean protection from cisplatin (shift in death) (%) = 0.2.
Against A1CF (APOBEC1 complementation factor) [SID131513174] the deposit lists two-siRNA summed score (-2 to +2) = 0; mean protection from cisplatin (shift in death) (%) = 6.3.
For LRCH4 [SID131508179], the entry reads two-siRNA summed score (-2 to +2) = 0; mean protection from cisplatin (shift in death) (%) = 0.7.
With knock-down of PAX2 (paired box 2) [SID131502542] the results were two-siRNA summed score (-2 to +2) = -1; mean protection from cisplatin (shift in death) (%) = -1.2.
For CNTROB [SID131505230], the entry reads two-siRNA summed score (-2 to +2) = 0; mean protection from cisplatin (shift in death) (%) = -3.5.
With knock-down of SYT14 (synaptotagmin 14) [SID131519770], the record shows two-siRNA summed score (-2 to +2) = 1; mean protection from cisplatin (shift in death) (%) = 7.4.
EVI5 (ecotropic viral integration site 5) [SID131521167] showed two-siRNA summed score (-2 to +2) = 1; mean protection from cisplatin (shift in death) (%) = 12.4.
AGPAT4 (1-acylglycerol-3-phosphate O-acyltransferase 4) [SID131517103] scored two-siRNA summed score (-2 to +2) = 0; mean protection from cisplatin (shift in death) (%) = 12.4.
After knock-down of UBN1 (ubinuclein 1) [SID131503873] the results were two-siRNA summed score (-2 to +2) = 0; mean protection from cisplatin (shift in death) (%) = -7.4.
Depletion of PKP4 (plakophilin 4) [SID131512231] resulted in: two-siRNA summed score (-2 to +2) = 0; mean protection from cisplatin (shift in death) (%) = 5.2.

Reprinted from the listing, 5 entries:
H4C4 (H4 clustered histone 4) [SID131507756] | two-siRNA summed score (-2 to +2): 0; mean protection from cisplatin (shift in death) (%): 0.2
A1CF (APOBEC1 complementation factor) [SID131513174] | two-siRNA summed score (-2 to +2): 0; mean protection from cisplatin (shift in death) (%): 6.3
LRCH4 [SID131508179] | two-siRNA summed score (-2 to +2): 0; mean protection from cisplatin (shift in death) (%): 0.7
PAX2 (paired box 2) [SID131502542] | two-siRNA summed score (-2 to +2): -1; mean protection from cisplatin (shift in death) (%): -1.2
CNTROB [SID131505230] | two-siRNA summed score (-2 to +2): 0; mean protection from cisplatin (shift in death) (%): -3.5
